Source: US12729225B2, “Non-canonical SWI/SNF complex and uses thereof” (Dana-Farber Cancer Institute, Inc., priority 2018, dated 2026)

Test system: mSWI/SNF complexes
Assay: mSWI/SNF complex purification with HA-tagged baits and mass spectrometry (peptide counts)
Set-up: species or system human
[1] = 293_HA-BRD7 bait purification, mass spectrometry, total peptide count per identified protein
[2] = 293_HA-BRD7 bait purification, mass spectrometry, unique peptide count per identified protein

Molecule | Total (293_HA-BRD7: HA-BRD7 bait purification, total peptide count per co-purified protein) | Unique (293_HA-BRD7: HA-BRD7 bait purification, unique peptide count per co-purified protein) | Total [1] | Unique [2]
RPN2 (protein, UniProt P04844 23-631, looked up) Dolichyl-diphosphooligosacchar …: LTPTHYLTKHDVERLKASLDRPFTNLESAFYSIVGLSSLGAQVPDAKKACTYIRSNLDPSNVDSLFYAAQASQALSGCEISISNETKDLLLAAVSEDSSVTQIYHAVAALSGFGLPLASQEALSALTARLSKEETVLATVQALQTASHLSQQADLRSIVEEIEDLVARLDELGGVYLQFEEGLETTALFVAATYKLMDHVGTEPSIKEDQVIQLMNAIFSKKNFESLSEAFSVASAAAVLSHNRYHVPVVVVPEGSASDTHEQAILRLQVTNVLSQPLTQATVKLEHAKSVASRATVLQKTSFTPVGDVFELNFMNVKFSSGYYDFLVEVEGDNRYIANTVELRVKISTEVGITNVDLSTVDKDQSIAPKTTRVTYPAKAKGTFIADSHQNFALFFQLVDVNTGAELTPHQTFVRLHNQKTGQEVVFVAEPDNKNVYKFELDTSERKIEFDSASGTYTLYLIIGDATLKNPILWNVADVVIKFPEEEAPSTVLSQNLFTPKQEIQHLFREPEKRPPTVVSNTFTALILSPLLLLFALWIRIGANVSNFTFAPSTIIFHLGHAAMLGLMYVYWTQLNMFQTLKYLAILGSVTFLAGNRMLAQQAVKRTAH | 13 | 12 | – | –
TSR1 (protein, UniProt Q2NL82 1-804, looked up) Pre-rRNA-processing protein …: MAAHRPGPLKQQNKAHKGGRHRGRGSAQRDGKGRLALKTLSKKVRKELSRVDQRHRASQLRKQKKEAVLAEKRQLGGKDGPPHQVLVVPLHSRISLPEAMQLLQDRDTGTVHLNELGNTQNFMLLCPRLKHRWFFTSARPGDLHVVLDMAKVADTILFLLDPLEGWDSTGDYCLSCLFAQGLPTYTLAVQGISGLPLKKQIDTRKKLSKAVEKRFPHDKLLLLDTQQEAGMLLRQLANQKQQHLAFRDRRAYLFAHAVDFVPSEENNLVGTLKISGYVRGQTLNVNRLLHIVGYGDFQMKQIDAPGDPFPLNPRGIKPQKDPDMAMEICATDAVDDMEEGLKVLMKADPGRQESLQAEVIPDPMEGEQTWPTEEELSEAKDFLKESSKVVKKVPKGTSSYQAEWILDGGSQSGGEGDEYEYDDMEHEDFMEEESQDESSEEEEEYETMTIGESVHDDLYDKKVDEEAEAKMLEKYKQERLEEMFPDEVDTPRDVAARIRFQKYRGLKSFRTSPWDPKENLPQDYARIFQFQNFTNTRKSIFKEVEEKEVEGAEVGWYVTLHVSEVPVSVVECFRQGTPLIAFSLLPHEQKMSVLNMVVRRDPGNTEPVKAKEELIFHCGFRRFRASPLFSQHTAADKHKLQRFLTADMALVATVYAPITFPPASVLLFKQKSNGMHSLIATGHLMSVDPDRMVIKRVVLSGHPFKIFTKMAVVRYMFFNREDVLWFKPVELRTKWGRRGHIKEPLGTHGHMKCSFDGKLKSQDTVLMNLYKRVFPKWTYDPYVPEPVPWLKSEISSTVPQGGME | – | – | 1 | 1
##LIPI (protein, UniProt Q6XZB0 16-460, looked up) Lipase member I: DNKRPCLEFSQLSVKDSFRDLFIPRIETILMMYTRNNLNCAEPLFEQNNSLNVNFNTQKKTVWLIHGYRPVGSIPLWLQNFVRILLNEEDMNVIVVDWSRGATTFIYNRAVKNTRKVAVSLSVHIKNLLKHGASLDNFHFIGVSLGAHISGFVGKIFHGQLGRITGLDPAGPRFSRKPPYSRLDYTDAKFVDVIHSDSNGLGIQEPLGHIDFYPNGGNKQPGCPKSIFSGIQFIKCNHQRAVHLFMASLETNCNFISFPCRSYKDYKTSLCVDCDCFKEKSCPRLGYQAKLFKGVLKERMEGRPLRTTVFLDTSGTYPFCTYYFVLSIIVPDKTMMDGSFSFKLLNQLGMIEEPRLYEKNKPFYKLQEVKILAQFYNDFVNISSIGLTYFQSSNLQCSTCTYKIQSLMLKSLTYPERPPLCRYNIVLKDREEVFLNPNTCTPKNT | – | – | 1 | 1
NCBP1 (protein, UniProt Q09161 1-790, looked up) Nuclear cap-binding protein …: MSRRRHSDENDGGQPHKRRKTSDANETEDHLESLICKVGEKSACSLESNLEGLAGVLEADLPNYKSKILRLLCTVARLLPEKLTIYTTLVGLLNARNYNFGGEFVEAMIRQLKESLKANNYNEAVYLVRFLSDLVNCHVIAAPSMVAMFENFVSVTQEEDVPQVRRDWYVYAFLSSLPWVGKELYEKKDAEMDRIFANTESYLKRRQKTHVPMLQVWTADKPHPQEEYLDCLWAQIQKLKKDRWQERHILRPYLAFDSILCEALQHNLPPFTPPPHTEDSVYPMPRVIFRMFDYTDDPEGPVMPGSHSVERFVIEENLHCIIKSHWKERKTCAAQLVSYPGKNKIPLNYHIVEVIFAELFQLPAPPHIDVMYTTLLIELCKLQPGSLPQVLAQATEMLYMRLDTMNTTCVDRFINWFSHHLSNFQFRWSWEDWSDCLSQDPESPKPKFVREVLEKCMRLSYHQRILDIVPPTFSALCPANPTCIYKYGDESSNSLPGHSVALCLAVAFKSKATNDEIFSILKDVPNPNQDDDDDEGFSFNPLKIEVFVQTLLHLAAKSFSHSFSALAKFHEVFKTLAESDEGKLHVLRVMFEVWRNHPQMIAVLVDKMIRTQIVDCAAVANWIFSSELSRDFTRLFVWEILHSTIRKMNKHVLKIQKELEEAKEKLARQHKRRSDDDDRSSDRKDGVLEEQIERLQEKVESAQSEQKNLFLVIFQRFIMILTEHLVRCETDGTSVLTPWYKNCIERLQQIFLQHHQIIQQYMVTLENLLFTAELDPHILAVFQQFCALQA | – | – | 1 | 1
PDE7B (protein, UniProt Q9NP56 1-450, looked up) 3',5'-cyclic-AMP …: MSCLMVERCGEILFENPDQNAKCVCMLGDIRLRGQTGVRAERRGSYPFIDFRLLNSTTYSGEIGTKKKVKRLLSFQRYFHASRLLRGIIPQAPLHLLDEDYLGQARHMLSKVGMWDFDIFLFDRLTNGNSLVTLLCHLFNTHGLIHHFKLDMVTLHRFLVMVQEDYHSQNPYHNAVHAADVTQAMHCYLKEPKLASFLTPLDIMLGLLAAAAHDVDHPGVNQPFLIKTNHHLANLYQNMSVLENHHWRSTIGMLRESRLLAHLPKEMTQDIEQQLGSLILATDINRQNEFLTRLKAHLHNKDLRLEDAQDRHFMLQIALKCADICNPCRIWEMSKQWSERVCEEFYRQGELEQKFELEISPLCNQQKDSIPSIQIGFMSYIVEPLFREWAHFTGNSTLSENMLGHLAHNKAQWKSLLPRQHRSRGSSGSGPDHDHAGQGTESEEQEGDSP | – | – | 1 | 1
EXOSC10 (protein, UniProt Q01780 1-885, looked up) Exosome complex component 10: MAPPSTREPRVLSATSATKSDGEMVLPGFPDADSFVKFALGSVVAVTKASGGLPQFGDEYDFYRSFPGFQAFCETQGDRLLQCMSRVMQYHGCRSNIKDRSKVTELEDKFDLLVDANDVILERVGILLDEASGVNKNQQPVLPAGLQVPKTVVSSWNRKAAEYGKKAKSETFRLLHAKNIIRPQLKFREKIDNSNTPFLPKIFIKPNAQKPLPQALSKERRERPQDRPEDLDVPPALADFIHQQRTQQVEQDMFAHPYQYELNHFTPADAVLQKPQPQLYRPIEETPCHFISSLDELVELNEKLLNCQEFAVDLEHHSYRSFLGLTCLMQISTRTEDFIIDTLELRSDMYILNESLTDPAIVKVFHGADSDIEWLQKDFGLYVVNMFDTHQAARLLNLGRHSLDHLLKLYCNVDSNKQYQLADWRIRPLPEEMLSYARDDTHYLLYIYDKMRLEMWERGNGQPVQLQVVWQRSRDICLKKFIKPIFTDESYLELYRKQKKHLNTQQLTAFQLLFAWRDKTARREDESYGYVLPNHMMLKIAEELPKEPQGIIACCNPVPPLVRQQINEMHLLIQQAREMPLLKSEVAAGVKKSGPLPSAERLENVLFGPHDCSHAPPDGYPIIPTSGSVPVQKQASLFPDEKEDNLLGTTCLIATAVITLFNEPSAEDSKKGPLTVAQKKAQNIMESFENPFRMFLPSLGHRAPVSQAAKFDPSTKIYEISNRWKLAQVQVQKDSKEAVKKKAAEQTAAREQAKEACKAAAEQAISVRQQVVLENAAKKRERATSDPRTTEQKQEKKRLKISKKPKDPEPPEKEFTPYDYSQSDFKAFAGNSKSKVSSQFDPNKQTPSGKKCIAAKKIKQSVGNKSMSFPTGKSDRGFRYNWPQR | – | – | 1 | 1
HYOU1 (protein, UniProt Q9Y4L1 33-999, looked up) Hypoxia up-regulated protein 1: LAVMSVDLGSESMKVAIVKPGVPMEIVLNKESRRKTPVIVTLKENERFFGDSAASMAIKNPKATLRYFQHLLGKQADNPHVALYQARFPEHELTFDPQRQTVHFQISSQLQFSPEEVLGMVLNYSRSLAEDFAEQPIKDAVITVPVFFNQAERRAVLQAARMAGLKVLQLINDNTATALSYGVFRRKDINTTAQNIMFYDMGSGSTVCTIVTYQMVKTKEAGMQPQLQIRGVGFDRTLGGLEMELRLRERLAGLFNEQRKGQRAKDVRENPRAMAKLLREANRLKTVLSANADHMAQIEGLMDDVDFKAKVTRVEFEELCADLFERVPGPVQQALQSAEMSLDEIEQVILVGGATRVPRVQEVLLKAVGKEELGKNINADEAAAMGAVYQAAALSKAFKVKPFVVRDAVVYPILVEFTREVEEEPGIHSLKHNKRVLFSRMGPYPQRKVITFNRYSHDFNFHINYGDLGFLGPEDLRVFGSQNLTTVKLKGVGDSFKKYPDYESKGIKAHFNLDESGVLSLDRVESVFETLVEDSAEEESTLTKLGNTISSLFGGGTTPDAKENGTDTVQEEEESPAEGSKDEPGEQVELKEEAEAPVEDGSQPPPPEPKGDATPEGEKATEKENGDKSEAQKPSEKAEAGPEGVAPAPEGEKKQKPARKRRMVEEIGVELVVLDLPDLPEDKLAQSVQKLQDLTLRDLEKQEREKAANSLEAFIFETQDKLYQPEYQEVSTEEQREEISGKLSAASTWLEDEGVGATTVMLKEKLAELRKLCQGLFFRVEERKKWPERLSALDNLLNHSSMFLKGARLIPEMDQIFTEVEMTTLEKVINETWAWKNATLAEQAKLPATEKPVLLSKDIEAKMMALDREVQYLLNKAKFTKPRPRPKDKNGTRAEPPLNASASDQGEKVIPPAGQTEDAEPISEPEKVETGSEPGDTEPLELGGPGAEPEQKEQSTGQKRPLKNDEL | – | – | 1 | 1
SRRT (protein, UniProt Q9BXP5 2-876, looked up) Serrate RNA effector molecule …: GDSDDEYDRRRRDKFRRERSDYDRSRERDERRRGDDWNDREWDRGRERRSRGEYRDYDRNRRERFSPPRHELSPPQKRMRRDWDEHSSDPYHSGYEMPYAGGGGGPTYGPPQPWGHPDVHIMQHHVLPIQARLGSIAEIDLGVPPPVMKTFKEFLLSLDDSVDETEAVKRYNDYKLDFRRQQMQDFFLAHKDEEWFRSKYHPDEVGKRRQEARGALQNRLRVFLSLMETGWFDNLLLDIDKADAIVKMLDAAVIKMEGGTENDLRILEQEEEEEQAGKPGEPSKKEEGRAGAGLGDGERKTNDKDEKKEDGKQAENDSSNDDKTKKSEGDGDKEEKKEDSEKEAKKSSKKRNRKHSGDDSFDEGSVSESESESESGQAEEEKEEAEEALKEKEKPKEEEWEKPKDAAGLECKPRPLHKTCSLFMRNIAPNISRAEIISLCKRYPGFMRVALSEPQPERRFFRRGWVTFDRSVNIKEICWNLQNIRLRECELSPGVNRDLTRRVRNINGITQHKQIVRNDIKLAAKLIHTLDDRTQLWASEPGTPPLPTSLPSQNPILKNITDYLIEEVSAEEEELLGSSGGAPPEEPPKEGNPAEINVERDEKLIKVLDKLLLYLRIVHSLDYYNTCEYPNEDEMPNRCGIIHVRGPMPPNRISHGEVLEWQKTFEEKLTPLLSVRESLSEEEAQKMGRKDPEQEVEKFVTSNTQELGKDKWLCPLSGKKFKGPEFVRKHIFNKHAEKIEEVKKEVAFFNNFLTDAKRPALPEIKPAQPPGPAQILPPGLTPGLPYPHQTPQGLMPYGQPRPPILGYGAGAVRPAVPTGGPPYPHAPYGAGRGNYDAFRGQGGYPGKPRNRMVRGDPRAIVEYRDLDAPDDVDFF | – | – | 1 | 1
